Laboratory results: the supplement of paper PMC10849652
The list shows a part of the results.

Sequences of proteins named here, by UniProt entry; tags and fusion partners are left off. A change or cut given only in a name is not applied to a line headed by its entry.
UniProt Q96KF7: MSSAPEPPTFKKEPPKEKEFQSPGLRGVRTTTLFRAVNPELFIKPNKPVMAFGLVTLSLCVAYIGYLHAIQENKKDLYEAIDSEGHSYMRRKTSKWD
UniProt Q6GMV2: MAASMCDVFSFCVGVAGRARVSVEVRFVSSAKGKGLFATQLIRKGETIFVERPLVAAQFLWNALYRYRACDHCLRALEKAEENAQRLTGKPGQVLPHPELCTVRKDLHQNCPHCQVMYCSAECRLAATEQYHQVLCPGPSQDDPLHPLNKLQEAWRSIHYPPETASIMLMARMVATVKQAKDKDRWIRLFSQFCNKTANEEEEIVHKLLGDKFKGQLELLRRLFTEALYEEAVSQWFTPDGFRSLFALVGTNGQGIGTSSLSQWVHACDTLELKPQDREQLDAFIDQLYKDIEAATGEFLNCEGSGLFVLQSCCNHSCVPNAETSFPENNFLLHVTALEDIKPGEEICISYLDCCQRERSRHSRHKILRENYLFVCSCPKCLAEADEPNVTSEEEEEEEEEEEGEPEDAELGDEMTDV
UniProt P00441, whole entry, looked up: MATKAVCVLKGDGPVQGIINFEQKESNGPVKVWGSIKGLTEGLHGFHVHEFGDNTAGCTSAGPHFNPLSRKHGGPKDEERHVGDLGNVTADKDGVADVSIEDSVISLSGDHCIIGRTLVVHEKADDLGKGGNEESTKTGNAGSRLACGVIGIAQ
UniProt P62304, whole entry, looked up: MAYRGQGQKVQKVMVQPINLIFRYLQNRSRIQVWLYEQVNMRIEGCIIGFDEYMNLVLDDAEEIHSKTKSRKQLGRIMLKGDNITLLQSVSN
UniProt Q14683: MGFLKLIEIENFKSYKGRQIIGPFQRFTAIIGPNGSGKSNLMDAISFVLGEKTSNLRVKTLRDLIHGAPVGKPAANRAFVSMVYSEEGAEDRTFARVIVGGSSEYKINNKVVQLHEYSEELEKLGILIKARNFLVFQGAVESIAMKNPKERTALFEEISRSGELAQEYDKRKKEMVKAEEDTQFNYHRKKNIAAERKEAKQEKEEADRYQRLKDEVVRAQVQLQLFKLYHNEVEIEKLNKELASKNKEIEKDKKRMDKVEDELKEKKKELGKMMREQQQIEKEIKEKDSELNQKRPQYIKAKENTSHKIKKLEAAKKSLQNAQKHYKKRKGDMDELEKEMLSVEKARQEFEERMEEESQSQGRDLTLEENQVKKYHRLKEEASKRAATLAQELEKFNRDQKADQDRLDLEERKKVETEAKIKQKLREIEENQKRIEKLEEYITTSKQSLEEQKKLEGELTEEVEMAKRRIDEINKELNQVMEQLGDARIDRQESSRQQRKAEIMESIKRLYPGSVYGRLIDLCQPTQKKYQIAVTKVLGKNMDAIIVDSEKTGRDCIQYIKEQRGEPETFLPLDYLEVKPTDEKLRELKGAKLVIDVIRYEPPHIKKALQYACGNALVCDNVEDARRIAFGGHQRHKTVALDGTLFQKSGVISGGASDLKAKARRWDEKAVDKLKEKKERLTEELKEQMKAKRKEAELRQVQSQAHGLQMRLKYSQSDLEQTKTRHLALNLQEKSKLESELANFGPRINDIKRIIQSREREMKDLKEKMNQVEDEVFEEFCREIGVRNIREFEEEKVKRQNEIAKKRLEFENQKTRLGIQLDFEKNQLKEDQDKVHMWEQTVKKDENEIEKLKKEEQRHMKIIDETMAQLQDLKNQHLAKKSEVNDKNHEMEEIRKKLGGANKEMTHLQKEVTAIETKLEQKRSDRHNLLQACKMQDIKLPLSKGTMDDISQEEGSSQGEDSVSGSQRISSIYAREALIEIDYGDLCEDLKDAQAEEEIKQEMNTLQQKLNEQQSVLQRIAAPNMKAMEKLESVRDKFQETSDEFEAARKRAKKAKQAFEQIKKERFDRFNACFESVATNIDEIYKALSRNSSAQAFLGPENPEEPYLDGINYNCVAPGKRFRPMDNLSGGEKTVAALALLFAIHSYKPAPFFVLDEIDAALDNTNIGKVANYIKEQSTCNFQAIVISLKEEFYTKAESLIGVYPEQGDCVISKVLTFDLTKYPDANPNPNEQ
UniProt Q8TAQ2, whole entry, looked up: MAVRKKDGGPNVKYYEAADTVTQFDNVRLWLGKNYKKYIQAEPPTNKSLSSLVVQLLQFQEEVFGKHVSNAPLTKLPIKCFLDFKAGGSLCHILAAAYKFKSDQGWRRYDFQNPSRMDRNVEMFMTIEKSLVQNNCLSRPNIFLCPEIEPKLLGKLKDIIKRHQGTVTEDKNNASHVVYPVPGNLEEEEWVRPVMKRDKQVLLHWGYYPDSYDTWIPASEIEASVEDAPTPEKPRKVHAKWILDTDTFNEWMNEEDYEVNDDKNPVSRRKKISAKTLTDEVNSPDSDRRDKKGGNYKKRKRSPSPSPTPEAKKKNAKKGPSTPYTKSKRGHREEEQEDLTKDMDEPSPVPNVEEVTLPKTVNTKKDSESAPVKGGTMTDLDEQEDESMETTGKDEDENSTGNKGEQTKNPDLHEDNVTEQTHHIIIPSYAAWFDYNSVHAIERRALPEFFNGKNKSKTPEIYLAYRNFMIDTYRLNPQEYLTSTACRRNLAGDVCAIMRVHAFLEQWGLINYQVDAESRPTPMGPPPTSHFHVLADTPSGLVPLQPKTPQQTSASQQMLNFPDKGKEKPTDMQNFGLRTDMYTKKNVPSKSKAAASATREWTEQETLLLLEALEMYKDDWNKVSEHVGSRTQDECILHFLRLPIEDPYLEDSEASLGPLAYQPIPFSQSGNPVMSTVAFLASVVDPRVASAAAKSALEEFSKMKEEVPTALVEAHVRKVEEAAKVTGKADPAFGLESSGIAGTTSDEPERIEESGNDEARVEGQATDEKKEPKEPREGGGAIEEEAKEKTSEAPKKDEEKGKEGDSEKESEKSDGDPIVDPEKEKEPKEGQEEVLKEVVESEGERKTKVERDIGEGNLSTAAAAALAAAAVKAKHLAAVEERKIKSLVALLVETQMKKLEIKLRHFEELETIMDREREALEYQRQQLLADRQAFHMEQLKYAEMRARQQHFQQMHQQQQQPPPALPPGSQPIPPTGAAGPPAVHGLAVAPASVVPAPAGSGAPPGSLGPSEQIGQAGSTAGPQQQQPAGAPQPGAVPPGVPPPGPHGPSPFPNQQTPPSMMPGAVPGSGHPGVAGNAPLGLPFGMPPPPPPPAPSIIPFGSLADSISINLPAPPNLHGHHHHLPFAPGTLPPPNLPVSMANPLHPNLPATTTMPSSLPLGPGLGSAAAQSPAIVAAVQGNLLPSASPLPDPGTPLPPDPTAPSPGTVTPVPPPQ
UniProt Q99717: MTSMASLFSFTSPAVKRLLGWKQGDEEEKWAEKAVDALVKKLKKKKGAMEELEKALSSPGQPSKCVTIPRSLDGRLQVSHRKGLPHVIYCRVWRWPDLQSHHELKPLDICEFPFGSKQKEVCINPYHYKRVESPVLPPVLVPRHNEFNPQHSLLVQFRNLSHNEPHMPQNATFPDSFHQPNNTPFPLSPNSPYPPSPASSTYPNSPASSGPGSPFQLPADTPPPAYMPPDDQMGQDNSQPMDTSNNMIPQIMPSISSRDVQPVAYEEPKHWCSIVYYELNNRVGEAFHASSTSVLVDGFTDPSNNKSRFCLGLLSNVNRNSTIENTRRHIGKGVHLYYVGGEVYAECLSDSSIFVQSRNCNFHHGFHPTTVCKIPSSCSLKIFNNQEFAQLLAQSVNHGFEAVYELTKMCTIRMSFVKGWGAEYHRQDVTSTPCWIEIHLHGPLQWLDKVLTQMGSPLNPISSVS
UniProt O75391: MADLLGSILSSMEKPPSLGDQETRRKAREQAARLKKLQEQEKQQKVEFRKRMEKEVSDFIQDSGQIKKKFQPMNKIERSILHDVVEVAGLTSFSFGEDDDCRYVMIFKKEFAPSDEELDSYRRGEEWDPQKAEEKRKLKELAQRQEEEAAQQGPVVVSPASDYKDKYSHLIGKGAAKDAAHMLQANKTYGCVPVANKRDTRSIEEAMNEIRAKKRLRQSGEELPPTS
UniProt P08621, whole entry, looked up: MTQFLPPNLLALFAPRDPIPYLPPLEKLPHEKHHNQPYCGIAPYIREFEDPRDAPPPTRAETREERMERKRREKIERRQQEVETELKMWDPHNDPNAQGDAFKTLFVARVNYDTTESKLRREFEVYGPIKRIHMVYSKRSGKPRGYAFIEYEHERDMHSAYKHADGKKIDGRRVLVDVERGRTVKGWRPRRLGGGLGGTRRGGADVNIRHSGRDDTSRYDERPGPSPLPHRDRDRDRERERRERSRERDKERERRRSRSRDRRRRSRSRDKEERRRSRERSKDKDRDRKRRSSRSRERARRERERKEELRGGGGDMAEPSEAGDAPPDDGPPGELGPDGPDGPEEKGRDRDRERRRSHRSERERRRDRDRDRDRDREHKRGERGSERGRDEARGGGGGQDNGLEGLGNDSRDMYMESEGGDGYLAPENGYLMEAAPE
UniProt O60641: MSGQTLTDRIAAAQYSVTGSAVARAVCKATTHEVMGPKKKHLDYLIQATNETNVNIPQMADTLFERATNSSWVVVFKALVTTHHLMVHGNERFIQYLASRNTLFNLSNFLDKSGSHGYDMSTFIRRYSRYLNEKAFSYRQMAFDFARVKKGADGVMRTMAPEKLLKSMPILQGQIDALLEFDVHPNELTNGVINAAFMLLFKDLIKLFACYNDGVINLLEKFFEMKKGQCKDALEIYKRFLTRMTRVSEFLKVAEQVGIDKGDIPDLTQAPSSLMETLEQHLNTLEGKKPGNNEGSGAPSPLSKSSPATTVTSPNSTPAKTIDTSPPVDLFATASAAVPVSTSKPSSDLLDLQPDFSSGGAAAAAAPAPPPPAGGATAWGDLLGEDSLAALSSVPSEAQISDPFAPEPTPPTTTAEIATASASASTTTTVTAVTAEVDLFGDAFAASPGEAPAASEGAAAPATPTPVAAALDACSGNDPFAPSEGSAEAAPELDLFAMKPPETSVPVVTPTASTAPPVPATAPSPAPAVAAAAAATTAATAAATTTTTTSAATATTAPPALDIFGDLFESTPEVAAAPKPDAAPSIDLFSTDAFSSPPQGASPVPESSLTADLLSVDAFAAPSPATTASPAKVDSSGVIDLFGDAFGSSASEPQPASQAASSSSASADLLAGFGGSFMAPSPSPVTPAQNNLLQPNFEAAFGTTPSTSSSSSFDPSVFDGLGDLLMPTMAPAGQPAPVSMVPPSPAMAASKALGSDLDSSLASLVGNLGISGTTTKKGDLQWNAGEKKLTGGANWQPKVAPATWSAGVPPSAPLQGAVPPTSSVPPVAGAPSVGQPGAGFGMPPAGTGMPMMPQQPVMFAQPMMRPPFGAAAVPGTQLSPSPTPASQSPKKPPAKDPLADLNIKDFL
UniProt Q92536: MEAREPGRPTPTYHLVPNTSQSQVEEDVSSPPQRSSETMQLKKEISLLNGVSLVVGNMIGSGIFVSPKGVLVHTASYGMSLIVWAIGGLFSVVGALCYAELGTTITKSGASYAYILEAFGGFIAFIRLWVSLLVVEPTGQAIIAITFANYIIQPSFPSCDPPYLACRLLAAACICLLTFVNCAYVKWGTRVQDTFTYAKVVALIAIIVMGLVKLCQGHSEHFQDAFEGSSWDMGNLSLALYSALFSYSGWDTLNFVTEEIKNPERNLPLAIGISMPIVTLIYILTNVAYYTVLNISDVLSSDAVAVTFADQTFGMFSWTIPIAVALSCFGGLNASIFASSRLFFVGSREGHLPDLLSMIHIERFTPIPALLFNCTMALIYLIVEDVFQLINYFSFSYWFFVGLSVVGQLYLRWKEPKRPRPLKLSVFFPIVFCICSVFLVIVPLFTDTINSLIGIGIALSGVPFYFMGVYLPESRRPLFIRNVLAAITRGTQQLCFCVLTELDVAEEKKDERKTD
UniProt Q3SY56: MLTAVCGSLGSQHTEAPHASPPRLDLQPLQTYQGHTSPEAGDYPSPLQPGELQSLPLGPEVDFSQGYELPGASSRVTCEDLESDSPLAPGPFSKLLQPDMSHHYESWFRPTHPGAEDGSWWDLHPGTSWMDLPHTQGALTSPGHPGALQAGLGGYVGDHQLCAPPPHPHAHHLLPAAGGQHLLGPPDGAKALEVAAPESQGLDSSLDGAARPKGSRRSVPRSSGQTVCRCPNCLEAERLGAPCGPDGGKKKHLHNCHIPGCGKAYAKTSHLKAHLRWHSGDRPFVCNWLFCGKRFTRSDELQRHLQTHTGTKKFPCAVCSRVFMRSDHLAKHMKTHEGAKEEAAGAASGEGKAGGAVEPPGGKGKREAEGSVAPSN
UniProt B2RUZ4: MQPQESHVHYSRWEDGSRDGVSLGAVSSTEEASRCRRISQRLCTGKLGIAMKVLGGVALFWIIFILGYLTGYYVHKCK
UniProt Q16637, whole entry, looked up: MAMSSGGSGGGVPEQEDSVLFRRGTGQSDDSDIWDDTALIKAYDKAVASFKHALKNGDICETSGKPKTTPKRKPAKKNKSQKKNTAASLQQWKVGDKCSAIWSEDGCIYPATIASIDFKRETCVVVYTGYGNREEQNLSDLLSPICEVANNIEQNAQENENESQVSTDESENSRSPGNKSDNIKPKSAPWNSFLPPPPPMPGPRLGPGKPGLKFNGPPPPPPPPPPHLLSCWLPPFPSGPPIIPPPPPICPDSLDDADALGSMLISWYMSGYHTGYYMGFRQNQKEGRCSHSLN

Tests used:
Experiment in all cases: log2 fold change, soluble protein after heating vs DMSO (PISA); higher = thermal stabilisation; K562 cells, 10 uM, 30 min; active = over 0.2 and 3.5 SD of the protein, either way, in both replicates (recomputed)
saracatinib = compound: CN1CCN(CCOc2cc(OC3CCOCC3)c3c(Nc4c(Cl)ccc5c4OCO5)ncnc3c2)CC1 [saracatinib]
How it was run: (§1)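 Thermal stability values are relative to control samples and come from duplicates. They are expressed as log2 fold changes. For measurement, K562 cells (2×10^6 cells/mL) received 10 μM compound for 30 min, and aliquots were heated for 3 min over 48°C-58°C, pooled, and extracted at 4°C in PBS with 0.5% NP-40. Soluble protein, the supernatant after 21,000xg for 90 min, was quantified by TMTpro 16plex LC-MS/MS with equalised channel sums.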

sotrastaurin = compound: CN1CCN(c2nc(C3=C(c4c[nH]c5ccccc45)C(=O)NC3=O)c3ccccc3n2)CC1 [sotrastaurin]
How it was run: as §1

alvocidib = compound: CN1CC[C@H](c2c(O)cc(O)c3c(=O)cc(-c4ccccc4Cl)oc23)[C@H](O)C1 [alvocidib]
How it was run: as §1

Tubastatin A = compound: CN1CCc2c(c3ccccc3n2Cc2ccc(C(=O)NO)cc2)C1 [Tubastatin A]
How it was run: as §1

[1] = compound: CNC(=O)C1=CC=CC=C1NC2=NC(=NC=C2Cl)NC3=C(C=C(C=C3)N4CCOCC4)OC
How it was run: as §1

defactinib = compound: CNC(=O)c1ccc(Nc2ncc(C(F)(F)F)c(NCc3nccnc3N(C)S(C)(=O)=O)n2)cc1 [defactinib]
How it was run: as §1

rucaparib = compound: CNCc1ccc(-c2[nH]c3cc(F)cc4c3c2CCNC4=O)cc1 [rucaparib]
How it was run: as §1

[2] = compound: CNc1nc(-c2ccc3c(N)n[nH]c3c2)cc(N2C[C@@H](C(=O)NC3CCCCC3)CC[C@H]2C)n1
How it was run: as §1

encorafenib = compound: COC(=O)N[C@@H](C)CNc1nccc(-c2cn(C(C)C)nc2-c2cc(Cl)cc(NS(C)(=O)=O)c2F)n1 [encorafenib]
How it was run: as §1

[3] = compound: COC(=O)[C@H](CCSC)NC(=O)C1=C(C=C(C=C1)NC[C@H](CS)N)C2=CC=CC=C2
How it was run: as §1

Measured: log2 fold change

SNRPD2 (UniProt P62316)
inactive: saracatinib 0.1 | sotrastaurin 0.031 | alvocidib 0.134 | Tubastatin A -0.023 | [1] 0.074 | defactinib 0.107 | rucaparib 0.046 | [2] -0.069 | encorafenib -0.019 | [3] 0.043

SLC9A3R2 (UniProt Q15599)
inactive: saracatinib 0.022 | sotrastaurin 0.017 | alvocidib 0.01 | Tubastatin A 0.014 | [1] -0.05 | defactinib -0.007 | rucaparib 0.036 | [2] -0.027 | encorafenib 0.013 | [3] 0.038

SMIM8 (UniProt Q96KF7)
inactive: saracatinib 0.026 | sotrastaurin 0.043 | alvocidib -0.103 | Tubastatin A -0.002 | [1] -0.032 | defactinib -0.019 | rucaparib 0.064 | [2] 0.029 | encorafenib 0.041 | [3] -0.061

SMYD5 (UniProt Q6GMV2)
inactive: saracatinib 0.018 | sotrastaurin -0.005 | alvocidib -0.044 | Tubastatin A -0.033 | [1] -0.005 | defactinib -0.038 | rucaparib -0.09 | [2] -0.061 | encorafenib -0.008 | [3] -0.021

SOD1 (UniProt P00441)
inactive: saracatinib 0.031 | sotrastaurin 0.079 | alvocidib 0.01 | Tubastatin A 0.06 | [1] -0.002 | defactinib -0.001 | rucaparib -0.066 | [2] 0.047 | encorafenib 0.023 | [3] 0.024

SNCA (UniProt P37840)
inactive: saracatinib 0.022 | sotrastaurin 0.063 | alvocidib -0.016 | Tubastatin A 0.026 | [1] -0.055 | defactinib -0.009 | rucaparib -0.024 | [2] -0.024 | encorafenib 0.001 | [3] 0.051

SORD (UniProt Q00796)
inactive: saracatinib 0.042 | sotrastaurin 0.066 | alvocidib -0.004 | Tubastatin A -0.034 | [1] -0.049 | defactinib 0.002 | rucaparib -0.014 | [2] -0.01 | encorafenib -0.014 | [3] 0

SNRPE (UniProt P62304)
inactive: saracatinib 0.023 | sotrastaurin 0.084 | alvocidib 0.095 | Tubastatin A -0.02 | [1] 0.016 | defactinib 0.087 | rucaparib 0.018 | [2] -0.035 | encorafenib -0.003 | [3] -0.012

SMC4 (UniProt Q9NTJ3)
inactive: saracatinib -0.017 | sotrastaurin -0.05 | alvocidib -0.015 | Tubastatin A 0.03 | [1] 0.067 | defactinib -0.038 | rucaparib 0.078 | [2] 0.042 | encorafenib 0.069 | [3] -0.047

SMC1A (UniProt Q14683)
inactive: saracatinib -0.015 | sotrastaurin -0.045 | alvocidib -0.064 | Tubastatin A 0.004 | [1] -0.01 | defactinib -0.082 | rucaparib -0.053 | [2] -0.019 | encorafenib 0.037 | [3] 0.004

SMARCC2 (UniProt Q8TAQ2)
inactive: saracatinib -0.089 | sotrastaurin -0.074 | alvocidib -0.094 | Tubastatin A 0.155 | [1] -0.033 | defactinib -0.188 | rucaparib 0.09 | [2] 0.054 | encorafenib -0.01 | [3] -0.069

SMAD5 (UniProt Q99717)
inactive: saracatinib -0.002 | sotrastaurin -0.053 | alvocidib 0.027 | Tubastatin A 0.049 | [1] -0.049 | defactinib -0.01 | [2] -0.009 | [3] -0.007

SMG9 (UniProt Q9H0W8)
inactive: saracatinib -0.061 | sotrastaurin -0.029 | alvocidib 0 | Tubastatin A 0.1 | [1] -0.086 | defactinib -0.11 | [2] 0.059 | [3] -0.005

SPAG7 (UniProt O75391)
inactive: saracatinib 0.014 | sotrastaurin -0.012 | alvocidib -0.023 | Tubastatin A -0.007 | [1] -0.001 | defactinib -0.034 | rucaparib -0.025 | [2] -0.003 | encorafenib -0.04 | [3] 0.05

SNRNP70 (UniProt P08621)
inactive: saracatinib -0.028 | sotrastaurin 0.093 | alvocidib 0.247 | Tubastatin A 0.039 | [1] -0.086 | defactinib 0.488 | rucaparib 0.292 | [2] -0.055 | encorafenib 0 | [3] -0.028

SNTA1 (UniProt Q13424)
inactive: saracatinib 0.145 | sotrastaurin -0.077 | alvocidib 0.017 | Tubastatin A 0.026 | defactinib 0.045 | [2] 0.038 | [3] 0.085

SLC9A3R1 (UniProt O14745)
inactive: saracatinib -0.01 | sotrastaurin 0.043 | alvocidib 0.011 | Tubastatin A 0.001 | [1] -0.004 | defactinib -0.021 | rucaparib -0.031 | [2] -0.011 | encorafenib -0.028 | [3] 0.007

SNAP91 (UniProt O60641)
inactive: saracatinib 0.092 | sotrastaurin -0.026 | alvocidib -0.012 | Tubastatin A -0.013 | [1] -0.025 | defactinib -0.03 | rucaparib -0.026 | [2] -0.026 | encorafenib 0.106 | [3] 0.073

SNF8 (UniProt Q96H20)
inactive: saracatinib 0.031 | sotrastaurin -0.026 | alvocidib -0.047 | Tubastatin A -0.031 | [1] -0.038 | defactinib -0.033 | rucaparib -0.062 | [2] -0.032 | encorafenib -0.006 | [3] 0.014

SNW1 (UniProt Q13573)
inactive: saracatinib 0.01 | sotrastaurin 0.003 | Tubastatin A -0.033 | [1] 0.038 | defactinib 0.131 | rucaparib 0.042 | [2] -0.082 | encorafenib -0.005 | [3] -0.005

SMU1 (UniProt Q2TAY7)
inactive: saracatinib 0.068 | sotrastaurin 0.001 | alvocidib -0.019 | Tubastatin A -0.035 | [1] 0.022 | defactinib 0.042 | rucaparib 0.032 | [2] -0.045 | encorafenib 0.003 | [3] -0.034

SMC1B isoform 3 (UniProt Q8NDV3)
inactive: saracatinib -0.059 | sotrastaurin -0.014 | alvocidib -0.036 | Tubastatin A 0.036 | [1] -0.039 | defactinib -0.111 | rucaparib 0.062 | [2] -0.036 | encorafenib -0.096 | [3] -0.007

SNU13, A0A3B3IUA2
inactive: saracatinib -0.075 | sotrastaurin 0.022 | alvocidib 0.087 | Tubastatin A -0.005 | [1] 0.003 | defactinib 0 | rucaparib -0.201 | [2] -0.08 | encorafenib -0.064 | [3] 0.063

SLC7A6 (UniProt Q92536)
inactive: saracatinib 0.018 | sotrastaurin 0.022 | Tubastatin A 0 | [1] -0.16 | defactinib -0.056 | rucaparib -0.034 | [2] 0.027 | encorafenib 0.002 | [3] -0.047

SP6 (UniProt Q3SY56)
inactive: saracatinib 0.046 | sotrastaurin 0.042 | alvocidib 0.049 | Tubastatin A 0.146 | [1] -0.11 | defactinib -0.121 | rucaparib 0.091 | [2] 0.073 | encorafenib -0.136 | [3] 0.14

SMIM1 (UniProt B2RUZ4)
inactive: saracatinib 0.032 | sotrastaurin -0.018 | alvocidib 0.087 | Tubastatin A -0.069 | [1] 0.046 | rucaparib -0.021 | [2] -0.1 | encorafenib 0.088

SNAP23 (UniProt O00161)
inactive: saracatinib -0.007 | sotrastaurin 0.053 | alvocidib 0.053 | Tubastatin A -0.016 | [1] -0.003 | defactinib 0.007 | rucaparib -0.036 | [2] 0.005 | encorafenib 0.017 | [3] 0.026

SND1 (UniProt Q7KZF4)
inactive: saracatinib -0.244 | sotrastaurin -0.067 | alvocidib 0.409 | Tubastatin A 0.044 | [1] 0.042 | defactinib 0.43 | rucaparib 0.8 | [2] 0.195 | encorafenib 0.288 | [3] -0.073

SMN1 (UniProt Q16637)
inactive: saracatinib 0.023 | sotrastaurin 0.121 | alvocidib 0.113 | Tubastatin A 0.018 | [1] 0.046 | defactinib 0.056 | rucaparib 0.233 | [2] -0.039 | encorafenib 0.121 | [3] -0.032

SOD3 (UniProt P08294)
inactive: saracatinib 0.036 | sotrastaurin -0.003 | alvocidib 0.072 | Tubastatin A 0 | defactinib -0.11 | [2] -0.111 | [3] -0.013

SMYD2 (UniProt Q9NRG4)
inactive: saracatinib -0.162 | sotrastaurin -0.354 | alvocidib -0.013 | Tubastatin A 0.027 | [1] 0.015 | defactinib -0.13 | [2] 0.208 | [3] -0.316

2 consecutive records already listed:
SND1 (UniProt Q7KZF4)
inactive: saracatinib -0.244 | sotrastaurin -0.067 | alvocidib 0.409 | Tubastatin A 0.044 | [1] 0.042 | defactinib 0.43 | rucaparib 0.8 | [2] 0.195 | encorafenib 0.288 | [3] -0.073

SMN1 (UniProt Q16637)
inactive: saracatinib 0.023 | sotrastaurin 0.121 | alvocidib 0.113 | Tubastatin A 0.018 | [1] 0.046 | defactinib 0.056 | rucaparib 0.233 | [2] -0.039 | encorafenib 0.121 | [3] -0.032
